Source: PubChem BioAssay AID504467 (National Center for Advancing Translational Sciences (NCATS), 2011)
About 7,700 (2.3%) of roughly 330,000 compounds were called active. Inconclusive means that the source gave no clear call. Such entries were picked first, then a sample of the others. The call rests on the fitted dose curve; in most records, active means well fitted inhibition curve with a large enough effect; inconclusive means small, poorly fitted or top-dose-only effect, or effect the other way; inactive means flat fitted curve, though single readings scatter. Potencies beside an inconclusive call are fits to weak or partial responses and may not hold up.

Test: qHTS screen for small molecules that inhibit ELG1-dependent DNA repair in human embryonic kidney (HEK293T) cells expressing luciferase-tagged ELG1; further: nearly all actives have a fitted effect of over 55% in size
Conditions: HEK293T ELG1-luciferase reporter, luminescence, 16 h, DNA damage induced by 5-fluorouridine; activity change, negative = inhibition: at 46.1 µM (top of the series)
How it was run: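 Quantitative HTS, concentration-response format. 2,000 cells/well co-treated with 5-fluorouridine and compound, 16 hr in 5% CO2 at 37 °C; ONE-Glo luminescence read after 30 min.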
On the % scale 0 is the no-effect control and ±100 the full control effect; potency means the concentration at half of the fitted maximal effect.

Row | Compound | Potency | activity change, negative = inhibition
1 | O=C(NCC(=O)c1ccccc1)OCc1ccc([N+](=O)[O-])cc1 | inconclusive: 12.6 µM [activator, partial curve, poor fit] | 
2 | CCNS(=O)(=O)c1ccc(CCC(=O)N2CCN(c3cc(Cl)ccc3C)CC2)cc1 | active: 11.6 µM | 
3 | O=S(=O)(NCc1cccs1)c1cccc(S(=O)(=O)N2CCCCC2)c1 | inconclusive: 2.31 µM [inhibitor, partial curve, poor fit] | 
4 | COc1cc(/C=N/NC(=O)CCN2CCN(Cc3ccccc3)CC2)cc(OC)c1OC | inconclusive: 29.1 µM [inhibitor, single point] | 
5 | Cc1nc(-c2ccc(Cl)cc2)sc1C1(C)CC(c2ccc([N+](=O)[O-])cc2)=NO1 (stereo not drawn) |  | inactive: 10.3%
6 | Cc1ccc(C(=O)N/C(=C/c2ccco2)C(=O)N2CCC(C)CC2)cc1 | inconclusive: 18.3 µM [inhibitor, single point] | 
7 | O=C(O)/C=C/C(=O)Nc1nccs1 | inconclusive: 6.51 µM [activator, full curve, poor fit] | 
8 | CCC(C)NC(=O)CSc1ccc(Cl)cc1 (stereo not drawn) | inconclusive: 18.4 µM [activator, single point] | 
9 | O=C(COc1ccccc1)N1CCN(C(=O)c2ccc([N+](=O)[O-])cc2)CC1 | inconclusive: 3.26 µM [activator, full curve] | 
10 | CCOC(=O)c1ccc(Nc2c(OCC)c(=O)c2=O)cc1 | inconclusive: 29.1 µM [inhibitor, single point] | 
11 | CCOC(=O)C1=C(CS(=O)(=O)c2ccc(C)cc2)NC(=O)NC1c1ccc(O)c(OC)c1 (stereo not drawn) |  | inactive: -9.96%
12 | CCOCCNC(=O)c1ccc2c3c(cccc13)CC2 | inconclusive: 25.9 µM [activator, single point] | 
13 | CCn1c2ccccc2c2cc(NC(=O)Nc3ccc([N+](=O)[O-])cc3C)ccc21 | inconclusive: 20.6 µM [inhibitor, single point] | 
14 | CCOCCCNc1nc2c(C)cccn2c(=O)c1/C=C1\SC(=S)N(C(C)CC)C1=O (stereo not drawn) | inconclusive: 1.83 µM [inhibitor, partial curve] | 
15 | Cc1onc(-c2ccccc2Cl)c1C(=O)N1CCCC1 |  | inactive: 4.26%
16 | O=C(CSc1nnnn1C1CCCCC1)N1CCN(C(=O)c2ccco2)CC1 | inconclusive: 20.6 µM [inhibitor, partial curve] | 
17 | Cc1cc(CNC(=O)c2cccc3c2C(=O)c2ccc(-c4ccc(F)cc4OCc4ccccc4)cc2S3(=O)=O)c(C(F)(F)F)o1 | inconclusive: 2.59 µM [inhibitor, partial curve, poor fit] | 
18 | Clc1cccc(-c2nnc(SC/C=C/c3ccccc3)n2Cc2ccco2)c1 | inconclusive: 25.9 µM [inhibitor, partial curve] | 
19 | Cc1ccc(C#CC[N+](C)(C)CC#Cc2ccccc2)cc1 | inconclusive: 13 µM [inhibitor, partial curve] | 
20 | COc1ccc(S(=O)(=O)N2CCCC2CNC(=O)C(=O)Nc2ccc(C)cc2)cc1 (stereo not drawn) | inconclusive: 29.1 µM [inhibitor, partial curve, poor fit] | 
21 | O=C(CSc1nnc(NCc2ccccc2)s1)c1ccco1 |  | inactive: 8.99%
22 | CCN1CCN(CC(=O)Nc2cc3c(cc2C(C)=O)OCO3)CC1 |  | inactive: 6.28%
23 | O=S(=O)(NCCc1c[nH]c2ccccc12)c1ccccc1 | inconclusive: 0.13 µM [inhibitor, single point] | 

Row | Compound | Potency | activity change, negative = inhibition
24 | COc1ccccc1-c1nc2c(c(SCC(=O)N3CCCCC3)n1)Cc1c(CO)cnc(C)c1O2 | active: 8.2 µM | 
25 | COc1ccccc1CNCCS(=O)(=O)NN1CCOCC1 | inconclusive: 16.4 µM [activator, single point] | 
26 | COc1ccc(C)cc1NC(=O)c1cc(S(=O)(=O)N2CCCCC2)ccc1N1CCOCC1 | active: 14.6 µM | 
27 | COCCNC(=O)c1cnn2c(C(F)(F)F)cc(-c3ccc(C)cc3)nc12 | active: 5.8 µM | 
28 | O=C(Nc1cccn(Cc2c(F)cccc2Cl)c1=O)NC1CCCCC1 | inconclusive: 32.6 µM [inhibitor, single point] | 
29 | COc1c(Cl)cc(C(=O)Nc2ccccc2-c2ccccc2)cc1Cl |  | inactive: 10.5%
30 | CC(C)(C)c1ccc(C(=O)NCC(=O)NNC(=O)c2ccccc2O)cc1 | inconclusive: 29.1 µM [activator, single point] | 
31 | COc1ccccc1C(=O)Nc1nnc(-c2ccc(F)cc2)s1 | inconclusive: 25.1 µM [activator, single point] | 
32 | CCOC(=O)Cn1cc(C(=O)c2ccco2)c2ccccc21 |  | inactive: 12.1%
33 | CC(C)c1ccc(OCc2ccc(C(=O)NN3CCN(C)CC3)o2)cc1 | inconclusive: 9.2 µM [activator, partial curve] | 
34 | COc1ccc(-c2noc(N3CCC(C(=O)N4CCN(c5ccccn5)CC4)CC3)n2)cc1 | inconclusive: 29.1 µM [inhibitor, single point] | 
35 | O=C(Cc1ccccc1[N+](=O)[O-])OCC(=O)c1ccccc1Br |  | inactive: 13%
36 | CC1=Nc2ccccc2/C1=C\c1sc(Nc2ccc(C)cc2)nc1O | inconclusive: 0.58 µM [inhibitor, full curve, poor fit] | 
37 | Cc1ccc(SCC(=O)Nc2cc([N+](=O)[O-])ccc2O)cc1 | inconclusive: 29.1 µM [inhibitor, partial curve, poor fit] | 
38 | O=C(Cn1cc([N+](=O)[O-])ccc1=O)N1CCc2ccccc21 |  | inactive: 23.2%
39 | COc1ccccc1/C=N\Nc1cn[nH]c(=O)c1Cl | inconclusive: 29.1 µM [activator, single point] | 
40 | Fc1ccc(CSc2ccc(-c3cccs3)nn2)cc1 | inconclusive: 11.6 µM [activator, partial curve] | 
41 | C=CCNC(=S)NCc1ccc(CNC(=S)NCC=C)cc1 |  | inactive: -10.4%
42 | Cc1cc(NC(=O)C(C)SCC(=O)Nc2cc(C(F)(F)F)ccc2N2CCCCC2)no1 (stereo not drawn) | inconclusive: 29.1 µM [inhibitor, single point] | 
43 | CN(C)CCN1C(=O)c2oc3ccccc3c(=O)c2C1c1cccc(Br)c1 (stereo not drawn) | inconclusive: 11.2 µM [activator, partial curve, poor fit] | 
44 | Cc1c(Cl)cccc1NS(=O)(=O)c1ccc(-c2ccc(=O)[nH]n2)o1 |  | inactive: 0%
45 | CCNC(=O)CCCOc1ccc(Cl)cc1Cl | inconclusive: 20 µM [activator, partial curve, poor fit] | 
46 | CCc1ccc(CNc2ccc(O)cc2)cc1 | inconclusive: 9.2 µM [inhibitor, partial curve, poor fit] | 

Entries from the list above with a nitro group on carbon, in the order listed:
Row | Compound | Potency | activity change, negative = inhibition
1 | O=C(NCC(=O)c1ccccc1)OCc1ccc([N+](=O)[O-])cc1 | inconclusive: 12.6 µM [activator, partial curve, poor fit] | 
5 | Cc1nc(-c2ccc(Cl)cc2)sc1C1(C)CC(c2ccc([N+](=O)[O-])cc2)=NO1 (stereo not drawn) |  | inactive: 10.3%
9 | O=C(COc1ccccc1)N1CCN(C(=O)c2ccc([N+](=O)[O-])cc2)CC1 | inconclusive: 3.26 µM [activator, full curve] | 
13 | CCn1c2ccccc2c2cc(NC(=O)Nc3ccc([N+](=O)[O-])cc3C)ccc21 | inconclusive: 20.6 µM [inhibitor, single point] | 
35 | O=C(Cc1ccccc1[N+](=O)[O-])OCC(=O)c1ccccc1Br |  | inactive: 13%
37 | Cc1ccc(SCC(=O)Nc2cc([N+](=O)[O-])ccc2O)cc1 | inconclusive: 29.1 µM [inhibitor, partial curve, poor fit] | 
38 | O=C(Cn1cc([N+](=O)[O-])ccc1=O)N1CCc2ccccc21 |  | inactive: 23.2%

In the list so far, two contain bromine:
Row | Compound | Potency | activity change, negative = inhibition
35 | O=C(Cc1ccccc1[N+](=O)[O-])OCC(=O)c1ccccc1Br |  | inactive: 13%
43 | CN(C)CCN1C(=O)c2oc3ccccc3c(=O)c2C1c1cccc(Br)c1 (stereo not drawn) | inconclusive: 11.2 µM [activator, partial curve, poor fit] | 

(next part)

Row | Compound | Potency | activity change, negative = inhibition
47 | O=C(CCC(=O)N1CCSc2ccccc21)NCc1ccc(Cl)cc1 |  | inactive: 10.8%
48 | CCOC(=O)C1=C(COC(=O)CCOc2ccccc2C)NC(=O)NC1C (stereo not drawn) |  | inactive: 14%
49 | CCN(CC(=O)Nc1ccc(NC(C)=O)cc1)C(=O)c1cc(S(=O)(=O)N2CCCCCC2)ccc1OC | inconclusive: 20.6 µM [activator, single point] | 
50 | Cc1cccc(CSc2nn3c(=O)c(C)nnc3s2)c1 | inconclusive: 20.6 µM [activator, single point] | 
51 | COC(=O)c1sc(SC)c(S(=O)(=O)C(C)C)c1N | inconclusive: 7.3 µM [activator, partial curve, poor fit] | 
52 | CCC(Oc1ccccc1)C(=O)Nc1ccccc1N1CCCCC1 (stereo not drawn) |  | inactive: -5.88%
53 | O=C(CCC(=O)OCC(=O)c1cccc([N+](=O)[O-])c1)Nc1cccc(Cl)c1Cl | inconclusive: 0.731 µM [inhibitor, single point] | 
54 | O=C(Nc1nc2nccc(-c3ccccc3)n2n1)C(Cl)(Cl)Cl | inconclusive: 16.4 µM [activator, partial curve] | 
55 | Cc1cc(S(=O)(=O)N2CCOCC2)ccc1OCC(=O)Nc1ccc(F)cc1F | inconclusive: 16.4 µM [activator, partial curve, poor fit] | 
56 | CCCCCC(=O)Nc1ccc2oc(-c3cncc(Br)c3)nc2c1 | inconclusive: 1.3 µM [activator, full curve] | 
57 | O=C(Nc1ccccc1)c1ccc[n+](Cc2ccc([N+](=O)[O-])cc2)c1 |  | inactive: 17.5%
58 | O=C(NCCN1CCN(C(=O)c2c(F)cccc2F)CC1)C(=O)Nc1ccc(Cl)cc1 | active: 7.3 µM | 
59 | O=C(COc1ccc(F)cc1)Nc1nnc(C2CCCCC2)s1 | inconclusive: 23.1 µM [activator, partial curve, poor fit] | 
60 | COc1cccc(-n2c(CN3CCN(c4ccccn4)CC3)nc3ccc([N+](=O)[O-])cc3c2=O)c1 | inconclusive: 16.4 µM [inhibitor, single point] | 
61 | COc1ccc(C)cc1NC(=O)c1ccc(NS(=O)(=O)c2cccs2)cc1 |  | inactive: -2.76%
62 | COC(=O)c1cc(N2C(=O)C3C(C2=O)C2(C)C=CC3(C)O2)ccc1Cl (stereo not drawn) |  | inactive: -3.61%
63 | C/C(=N\NC(=O)c1cccc(N/N=C(\C)c2cc(O)ccc2O)c1)c1cc(O)ccc1O | active: 16.4 µM | 
64 | Cc1ccc(NS(=O)(=O)c2cc(-c3n[nH]c(=O)c4ccccc34)ccc2C)cc1 | inconclusive: 23.1 µM [inhibitor, single point] | 
65 | COc1ccc(CCN(CC(=O)NCc2ccc(F)cc2)C(=O)c2snc(C(N)=O)c2N)cc1OC | inconclusive: 18.3 µM [inhibitor, partial curve] | 
66 | COc1cc2c(cc1OC)CN(C(=O)CSc1nc(C)cc(C)c1C#N)CC2 | active: 2.59 µM | 
67 | COCCCN(C(=O)CC1OC(=O)c2ccccc21)c1c(N)n(Cc2ccccc2)c(=O)[nH]c1=O (stereo not drawn) | inconclusive: 14.6 µM [activator, partial curve, poor fit] | 
68 | COCCn1c(SCC(=O)NC(=O)NC2CCCCC2)nc2ccccc2c1=O | inconclusive: 14.6 µM [inhibitor, partial curve, poor fit] | 
